{
  "source": "PubChem BioAssay AID248",
  "about": "(DTP/NCI, 2004)",
  "tested_on": "L1210 leukemia ip in BDF1 mice, survival T/C",
  "experiment": "NCI In Vivo Anticancer Drug Screen. Data for tumor model L1210 Leukemia (intraperitoneal) in B6D2F1 (BDF1) mice",
  "conditions": "T/C endpoint: mean survival time, higher T/C = longer survival",
  "key": {"[1]": {"conditions": "dose: 200.0 mg/kg/injection, schedule: Q01DX001 (ip), vehicle: carboxymethylcellulose (CMC)"}, "[2]": {"conditions": "dose: 300.0 mg/kg/injection, schedule: Q01DX001 (ip), vehicle: carboxymethylcellulose (CMC)"}, "[3]": {"conditions": "dose: 400.0 mg/kg/injection, schedule: Q01DX001 (ip), vehicle: saline"}},
  "note": "The list is a part of this screen's results and no random one: it gathers tests that were run many times, whatever their T/C, doses with no T/C, and many T/C values between a quarter and a half above the control. Other doses and runs of a compound stand elsewhere. T/C gives the treated animals as a percentage of the vehicle group. Some doses have a count of surviving animals in place of a T/C: the source holds a T/C of zero for them, seemingly a mark for toxic or unscored doses. Some survivor counts are full or nearly so, which does not show that the dose was tolerated: survival well below the control is almost never listed, so the zero probably covers shortened survival too. Survivors were counted at the toxicity check, usually on the fifth day, unless a day is given; later deaths do not show. Schedule codes are those of the source, read here as Q, the interval in days (D) or hours (H), X, the number of doses. Some schedules carry Z or #; the key to these is not given. Some doses were run more than once; the values are given in rising order. Where survival is the endpoint, the PubChem record calls one and a half times the control and up active, and a quarter to a half above the control has no call in these data; cut-offs in other NCI protocols can differ. Some T/C values are followed by the survivors on the day toxicity was checked, most often the fifth; without a count, all were alive then.",
  "data": [
    {"smiles": "CN(C)CC(=O)c1ccc(O)c(O)c1", "values": [
      {"measurement": "T/C", "setting": "dose: 59.0 mg/kg/injection, schedule: Q01DX Z (ip), vehicle: saline", "result": "126 % of control"},
      {"measurement": "T/C", "setting": "dose: 66.5 mg/kg/injection, schedule: Q#A X Z (ip), vehicle: saline", "result": "146 % of control"},
      {"measurement": "T/C", "setting": "dose: 89.0 mg/kg/injection, schedule: Q01DX Z (ip), vehicle: saline", "result": "129 % of control"},
      {"measurement": "T/C", "setting": "dose: 100.0 mg/kg/injection, schedule: Q#A X Z (ip), vehicle: saline", "result": "137 % of control"},
      {"measurement": "T/C", "setting": "dose: 150.0 mg/kg/injection, schedule: Q01DX010 (ip), vehicle: saline", "result": "138 and 140 % of control"},
      {"measurement": "T/C", "setting": "dose: 150.0 mg/kg/injection, schedule: Q01DX Z (ip), vehicle: clinical formulation", "result": "125 % of control"},
      {"measurement": "T/C", "setting": "dose: 200.0 mg/kg/injection, schedule: Q01DX Z (ip), vehicle: carboxymethylcellulose (CMC)", "result": "133 % of control"},
      {"measurement": "T/C", "setting": "dose: 200.0 mg/kg/injection, schedule: Q01DX Z (ip), vehicle: saline", "result": "128, 130, 133 % of control"},
      {"measurement": "T/C", "setting": "dose: 225.0 mg/kg/injection, schedule: Q#A X Z (ip), vehicle: saline", "result": "132 % of control"},
      {"measurement": "T/C", "setting": "dose: 300.0 mg/kg/injection, schedule: Q01DX010 (ip), vehicle: saline", "result": "127 and 140 % of control"},
      {"measurement": "T/C", "setting": "dose: 300.0 mg/kg/injection, schedule: Q01DX Z (ip), vehicle: carboxymethylcellulose (CMC)", "result": "133 and 135 % of control [5 of 6 alive]"},
      {"measurement": "T/C", "setting": "dose: 300.0 mg/kg/injection, schedule: Q01DX Z (ip), vehicle: clinical formulation", "result": "127 % of control"},
      {"measurement": "T/C", "setting": "dose: 300.0 mg/kg/injection, schedule: Q01DX Z (ip), vehicle: saline", "result": "132 % of control"},
      {"measurement": "survivor count", "setting": "dose: 337.5 mg/kg/injection, schedule: Q#A X Z (ip), vehicle: saline", "result": "0 of 6"},
      {"measurement": "survivor count", "setting": "dose: 450.0 mg/kg/injection, schedule: Q01DX007 (iv), vehicle: saline", "result": "0 of 6"},
      {"measurement": "T/C", "setting": "dose: 450.0 mg/kg/injection, schedule: Q01DX Z (ip), vehicle: carboxymethylcellulose (CMC)", "result": "130 % of control"},
      {"measurement": "T/C", "setting": "dose: 450.0 mg/kg/injection, schedule: Q01DX Z (ip), vehicle: saline", "result": "127 % of control"},
      {"measurement": "T/C", "setting": "dose: 532.0 mg/kg/injection, schedule: Q01DX Z (ip), vehicle: carboxymethylcellulose (CMC)", "result": "143 % of control"},
      {"measurement": "T/C", "setting": "dose: 600.0 mg/kg/injection, schedule: Q01DX010 (ip), vehicle: saline", "result": "145 and 147 % of control"},
      {"measurement": "T/C", "setting": "dose: 600.0 mg/kg/injection, schedule: Q01DX Z (ip), vehicle: carboxymethylcellulose (CMC)", "result": "131 % of control"},
      {"measurement": "T/C", "setting": "dose: 600.0 mg/kg/injection, schedule: Q01DX Z (ip), vehicle: clinical formulation", "result": "136 and 137 % of control"},
      {"measurement": "T/C", "setting": "dose: 600.0 mg/kg/injection, schedule: Q01DX Z (ip), vehicle: water", "result": "130 % of control [5 of 6 alive]"},
      {"measurement": "survivor count", "setting": "dose: 675.0 mg/kg/injection, schedule: Q01DX007 (iv), vehicle: saline", "result": "0 of 6"},
      {"measurement": "T/C", "setting": "dose: 675.0 mg/kg/injection, schedule: Q01DX Z (ip), vehicle: carboxymethylcellulose (CMC)", "result": "147 % of control"},
      {"measurement": "survivor count", "setting": "dose: 675.0 mg/kg/injection, schedule: Q01DX Z (ip), vehicle: saline", "result": "1 of 6 and 6 of 6"},
      {"measurement": "T/C", "setting": "dose: 800.0 mg/kg/injection, schedule: Q01DX Z (ip), vehicle: carboxymethylcellulose (CMC)", "result": "145 % of control"},
      {"measurement": "survivor count", "setting": "dose: 800.0 mg/kg/injection, schedule: Q01DX Z (ip), vehicle: clinical formulation", "result": "3 of 6"},
      {"measurement": "survivor count", "setting": "dose: 900.0 mg/kg/injection, schedule: Q03DX Z (ip), vehicle: saline", "result": "0 of 6 and 3 of 6"},
      {"measurement": "survivor count", "setting": "dose: 1200.0 mg/kg/injection, schedule: Q01DX Z (ip), vehicle: carboxymethylcellulose (CMC)", "result": "0 of 6 and 2 of 6"},
      {"measurement": "survivor count", "setting": "dose: 1200.0 mg/kg/injection, schedule: Q01DX Z (ip), vehicle: clinical formulation", "result": "0 of 6"},
      {"measurement": "survivor count", "setting": "dose: 1350.0 mg/kg/injection, schedule: Q03DX Z (ip), vehicle: saline", "result": "0 of 6 and 2 of 6"},
      {"measurement": "survivor count", "setting": "dose: 1400.0 mg/kg/injection, schedule: Q07DX Z (ip), vehicle: saline", "result": "1 of 6 and 6 of 6"},
      {"measurement": "survivor count", "setting": "dose: 1800.0 mg/kg/injection, schedule: Q01DX Z (oral), vehicle: saline", "result": "3 of 6"},
      {"measurement": "survivor count", "setting": "dose: 2025.0 mg/kg/injection, schedule: Q03DX Z (ip), vehicle: saline", "result": "0 of 6"},
      {"measurement": "survivor count", "setting": "dose: 2100.0 mg/kg/injection, schedule: Q07DX Z (ip), vehicle: saline", "result": "0 of 6 and 6 of 6"},
      {"measurement": "survivor count", "setting": "dose: 2700.0 mg/kg/injection, schedule: Q01DX Z (oral), vehicle: saline", "result": "2 of 6"},
      {"measurement": "survivor count", "setting": "dose: 3150.0 mg/kg/injection, schedule: Q07DX Z (ip), vehicle: saline", "result": "0 of 6 and 6 of 6"}
    ]},
    {"smiles": "ClCCN(CCCl)CCN1c2ccccc2Sc2ccccc21", "values": [
      {"measurement": "T/C", "setting": "dose: 25.0 mg/kg/injection, schedule: Q01DX001 (ip), vehicle: Klucel (hydroxypropylcellulose) (HPC)", "result": "132 % of control"},
      {"measurement": "survivor count", "setting": "dose: 44.0 mg/kg/injection, schedule: Q01DX015 (ip), vehicle: carboxymethylcellulose (CMC)", "result": "5 of 6"},
      {"measurement": "survivor count", "setting": "dose: 50.0 mg/kg/injection, schedule: Q01DX001 (ip), vehicle: Klucel (hydroxypropylcellulose) (HPC)", "result": "3 of 6"},
      {"measurement": "survivor count", "setting": "dose: 55.0 mg/kg/injection, schedule: Q04DX003 (ip), vehicle: Klucel (hydroxypropylcellulose) (HPC)", "result": "5 of 6"},
      {"measurement": "survivor count", "setting": "dose: 66.0 mg/kg/injection, schedule: Q01DX015 (ip), vehicle: carboxymethylcellulose (CMC)", "result": "2 of 6"},
      {"measurement": "survivor count", "setting": "dose: 85.0 mg/kg/injection, schedule: Q04DX003 (ip), vehicle: Klucel (hydroxypropylcellulose) (HPC)", "result": "6 of 6"},
      {"measurement": "T/C", "setting": "dose: 88.8 mg/kg/injection, schedule: Q01DX001 (ip), vehicle: carboxymethylcellulose (CMC)", "result": "127 % of control"},
      {"measurement": "survivor count", "setting": "dose: 100.0 mg/kg/injection, schedule: Q01DX015 (ip), vehicle: carboxymethylcellulose (CMC)", "result": "1 of 6"},
      {"measurement": "survivor count", "setting": "dose: 100.0 mg/kg/injection, schedule: Q04DX003 (ip), vehicle: saline with Tween-80", "result": "6 of 6"},
      {"measurement": "survivor count", "setting": "dose: 125.0 mg/kg/injection, schedule: Q04DX003 (ip), vehicle: Klucel (hydroxypropylcellulose) (HPC)", "result": "1 of 6 and 6 of 6"},
      {"measurement": "survivor count", "setting": "dose: 200.0 mg/kg/injection, schedule: Q01DX001 (ip), vehicle: Klucel (hydroxypropylcellulose) (HPC)", "result": "2 of 6"},
      {"measurement": "T/C", "setting": "[1]", "result": "125 [3 of 4 alive] and 129 % of control"},
      {"measurement": "survivor count", "setting": "[1]", "result": "2 of 6"},
      {"measurement": "survivor count", "setting": "dose: 200.0 mg/kg/injection, schedule: Q04DX003 (ip), vehicle: saline with Tween-80", "result": "6 of 6"},
      {"measurement": "T/C", "setting": "[2]", "result": "141 % of control"},
      {"measurement": "survivor count", "setting": "[2]", "result": "1 of 4"},
      {"measurement": "survivor count", "setting": "dose: 400.0 mg/kg/injection, schedule: Q01DX001 (ip), vehicle: Klucel (hydroxypropylcellulose) (HPC)", "result": "1 of 6"},
      {"measurement": "survivor count", "setting": "dose: 400.0 mg/kg/injection, schedule: Q01DX001 (ip), vehicle: carboxymethylcellulose (CMC)", "result": "0 of 4"}
    ]},
    {"smiles": "Cc1ccc(Nc2ccc([N+](=O)[O-])cc2)cc1", "values": [
      {"measurement": "survivor count", "setting": "dose: 400.0 mg/kg/injection, schedule: Q01DX001 (ip), vehicle: gum acacia", "result": "3 of 6"}
    ]},
    {"smiles": "c1ccc([P+](CCC[P+](c2ccccc2)(c2ccccc2)c2ccccc2)(c2ccccc2)c2ccccc2)cc1", "values": [
      {"measurement": "survivor count", "setting": "dose: 16.0 mg/kg/injection, schedule: Q04DX003 (ip), vehicle: saline", "result": "3 of 6"},
      {"measurement": "survivor count", "setting": "dose: 32.0 mg/kg/injection, schedule: Q04DX003 (ip), vehicle: saline", "result": "0 of 6"}
    ]},
    {"smiles": "CC(C)C(C)(O)C(N)=O", "note": "(stereo not given)", "values": [
      {"measurement": "survivor count", "setting": "[3]", "result": "4 of 4"}
    ]},
    {"smiles": "COc1ccccc1OC(=O)CCl", "values": [
      {"measurement": "survivor count", "setting": "dose: 100.0 mg/kg/injection, schedule: Q01DX009 (ip), vehicle: saline with Tween-80", "result": "6 of 6"},
      {"measurement": "survivor count", "setting": "dose: 200.0 mg/kg/injection, schedule: Q01DX009 (ip), vehicle: saline with Tween-80", "result": "3 of 6"},
      {"measurement": "survivor count", "setting": "dose: 400.0 mg/kg/injection, schedule: Q01DX009 (ip), vehicle: saline with Tween-80", "result": "0 of 6"}
    ]},
    {"smiles": "O=CNc1cc2c3c(c1)CCCN3CCC2", "values": [
      {"measurement": "survivor count", "setting": "dose: 100.0 mg/kg/injection, schedule: Q01DX009 (ip), vehicle: saline", "result": "3 of 6"},
      {"measurement": "survivor count", "setting": "dose: 200.0 mg/kg/injection, schedule: Q01DX001 (ip), vehicle: saline", "result": "1 of 6"},
      {"measurement": "survivor count", "setting": "[3]", "result": "3 of 6"}
    ]}
  ]
}
